Laboratory results: patent publication US12729225B2, “Non-canonical SWI/SNF complex and uses thereof” (Dana-Farber Cancer Institute, Inc., priority 2018, dated 2026)

System: mSWI/SNF complexes
Test: mSWI/SNF complex purification with HA-tagged baits and mass spectrometry (peptide counts)
Parameters: species or system human
[1] = 293_HA-BRD7: HA-BRD7 bait purification, total peptide count per co-purified protein
[2] = 293_HA-BRD7: HA-BRD7 bait purification, unique peptide count per co-purified protein
[3] = 293_HA-DPF2 purification, total peptides
[4] = 293_HA-DPF2 purification, unique peptides
[5] = total peptide count of the co-purified protein, 293_HA-BRD9 (HA-BRD9 bait, mass spectrometry), Table 3b
[6] = unique peptide count of the co-purified protein, 293_HA-BRD9 (HA-BRD9 bait, mass spectrometry), Table 3b

Molecule	Total [1]	Unique [2]	Total [3]	Unique [4]	Total [5]	Unique [6]	Total (293_HA-BRD7 bait purification, mass spectrometry, total peptides per co-purified protein)	Unique (293_HA-BRD7 bait purification, mass spectrometry, unique peptides per co-purified protein)
NSF (protein, UniProt P46459 1-744, looked up) Vesicle-fusing ATPase: MAGRSMQAARCPTDELSLTNCAVVNEKDFQSGQHVIVRTSPNHRYTFTLKTHPSVVPGSIAFSLPQRKWAGLSIGQEIEVSLYTFDKAKQCIGTMTIEIDFLQKKSIDSNPYDTDKMAAEFIQQFNNQAFSVGQQLVFSFNEKLFGLLVKDIEAMDPSILKGEPATGKRQKIEVGLVVGNSQVAFEKAENSSLNLIGKAKTKENRQSIINPDWNFEKMGIGGLDKEFSDIFRRAFASRVFPPEIVEQMGCKHVKGILLYGPPGCGKTLLARQIGKMLNAREPKVVNGPEILNKYVGESEANIRKLFADAEEEQRRLGANSGLHIIIFDEIDAICKQRGSMAGSTGVHDTVVNQLLSKIDGVEQLNNILVIGMTNRPDLIDEALLRPGRLEVKMEIGLPDEKGRLQILHIHTARMRGHQLLSADVDIKELAVETKNFSGAELEGLVRAAQSTAMNRHIKASTKVEVDMEKAESLQVTRGDFLASLENDIKPAFGTNQEDYASYIMNGIIKWGDPVTRVLDDGELLVQQTKNSDRTPLVSVLLEGPPHSGKTALAAKIAEESNFPFIKICSPDKMIGFSETAKCQAMKKIFDDAYKSQLSCVVVDDIERLLDYVPIGPRFSNLVLQALLVLLKKAPPQGRKLLIIGTTSRKDVLQEMEMLNAFSTTIHVPNIATGEQLLEALELLGNFKDKERTTIAQQVKGKKVWIGIKKLLMLIEMSLQMDPEYRVRKFLALLREEGASPLDFD	6	6	2	1	1	1	–	–
HNRNPM (protein, UniProt P52272 2-730, looked up) Heterogeneous nuclear …: AAGVEAAAEVAATEIKMEEESGAPGVPSGNGAPGPKGEGERPAQNEKRKEKNIKRGGNRFEPYANPTKRYRAFITNIPFDVKWQSLKDLVKEKVGEVTYVELLMDAEGKSRGCAVVEFKMEESMKKAAEVLNKHSLSGRPLKVKEDPDGEHARRAMQKVMATTGGMGMGPGGPGMITIPPSILNNPNIPNEIIHALQAGRLGSTVFVANLDYKVGWKKLKEVFSMAGVVVRADILEDKDGKSRGIGTVTFEQSIEAVQAISMFNGQLLFDRPMHVKMDERALPKGDFFPPERPQQLPHGLGGIGMGLGPGGQPIDANHLNKGIGMGNIGPAGMGMEGIGFGINKMGGMEGPFGGGMENMGRFGSGMNMGRINEILSNALKRGEIIAKQGGGGGGGSVPGIERMGPGIDRLGGAGMERMGAGLGHGMDRVGSEIERMGLVMDRMGSVERMGSGIERMGPLGLDHMASSIERMGQTMERIGSGVERMGAGMGFGLERMAAPIDRVGQTIERMGSGVERMGPAIERMGLSMERMVPAGMGAGLERMGPVMDRMATGLERMGANNLERMGLERMGANSLERMGLERMGANSLERMGPAMGPALGAGIERMGLAMGGGGGASFDRAIEMERGNFGGSFAGSFGGAGGHAPGVARKACQIFVRNLPFDFTWKMLKDKFNECGHVLYADIKMENGKSKGCGVVKFESPEVAERACRMMNGMKLSGREIDVRIDRNA	25	25	2	2	19	14	–	–
ATP5A1 (protein, UniProt P25705 44-553, looked up) ATP synthase F(1) complex …: QKTGTAEMSSILEERILGADTSVDLEETGRVLSIGDGIARVHGLRNVQAEEMVEFSSGLKGMSLNLEPDNVGVVVFGNDKLIKEGDIVKRTGAIVDVPVGEELLGRVVDALGNAIDGKGPIGSKTRRRVGLKAPGIIPRISVREPMQTGIKAVDSLVPIGRGQRELIIGDRQTGKTSIAIDTIINQKRFNDGSDEKKKLYCIYVAIGQKRSTVAQLVKRLTDADAMKYTIVVSATASDAAPLQYLAPYSGCSMGEYFRDNGKHALIIYDDLSKQAVAYRQMSLLLRRPPGREAYPGDVFYLHSRLLERAAKMNDAFGGGSLTALPVIETQAGDVSAYIPTNVISITDGQIFLETELFYKGIRPAINVGLSVSRVGSAAQTRAMKQVAGTMKLELAQYREVAAFAQFGSDLDAATQQLLSRGVRLTELLKQGQYSPMAIEEQVAVIYAGVRGYLDKLEPSKITKFENAFLSHVVSQHQALLGTIRADGKISEQSDAKLKEIVTNFLAGFEA	32	27	4	3	13	12	–	–
LMNB1 (protein, UniProt P20700 2-583, looked up) Lamin-B1: ATATPVPPRMGSRAGGPTTPLSPTRLSRLQEKEELRELNDRLAVYIDKVRSLETENSALQLQVTEREEVRGRELTGLKALYETELADARRALDDTARERAKLQIELGKCKAEHDQLLLNYAKKESDLNGAQIKLREYEAALNSKDAALATALGDKKSLEGDLEDLKDQIAQLEASLAAAKKQLADETLLKVDLENRCQSLTEDLEFRKSMYEEEINETRRKHETRLVEVDSGRQIEYEYKLAQALHEMREQHDAQVRLYKEELEQTYHAKLENARLSSEMNTSTVNSAREELMESRMRIESLSSQLSNLQKESRACLERIQELEDLLAKEKDNSRRMLTDKEREMAEIRDQMQQQLNDYEQLLDVKLALDMEISAYRKLLEGEEERLKLSPSPSSRVTVSRASSSRSVRTTRGKRKRVDVEESEASSSVSISHSASATGNVCIEEIDVDGKFIRLKNTSEQDQPMGGWEMIRKIGDTSVSYKYTSRYVLKAGQTVTIWAANAGVTASPPTDLIWKNQNSWGTGEDVKVILKNSQGEEVAQRSTVFKTTIPEEEEEEEEAAGVVVEEELFHQQGTPRASNRSC	32	31	–	–	8	8	–	–
DDX23 (protein, UniProt Q9BUQ8 1-820, looked up) Probable ATP-dependent RNA …: MAGELADKKDRDASPSKEERKRSRTPDRERDRDRDRKSSPSKDRKRHRSRDRRRGGSRSRSRSRSKSAERERRHKERERDKERDRNKKDRDRDKDGHRRDKDRKRSSLSPGRGKDFKSRKDRDSKKDEEDEHGDKKPKAQPLSLEELLAKKKAEEEAEAKPKFLSKAEREAEALKRRQQEVEERQRMLEEERKKRKQFQDLGRKMLEDPQERERRERRERMERETNGNEDEEGRQKIREEKDKSKELHAIKERYLGGIKKRRRTRHLNDRKFVFEWDASEDTSIDYNPLYKERHQVQLLGRGFIAGIDLKQQKREQSRFYGDLMEKRRTLEEKEQEEARLRKLRKKEAKQRWDDRHWSQKKLDEMTDRDWRIFREDYSITTKGGKIPNPIRSWKDSSLPPHILEVIDKCGYKEPTPIQRQAIPIGLQNRDIIGVAETGSGKTAAFLIPLLVWITTLPKIDRIEESDQGPYAIILAPTRELAQQIEEETIKFGKPLGIRTVAVIGGISREDQGFRLRMGCEIVIATPGRLIDVLENRYLVLSRCTYVVLDEADRMIDMGFEPDVQKILEHMPVSNQKPDTDEAEDPEKMLANFESGKHKYRQTVMFTATMPPAVERLARSYLRRPAVVYIGSAGKPHERVEQKVFLMSESEKRKKLLAILEQGFDPPIIIFVNQKKGCDVLAKSLEKMGYNACTLHGGKGQEQREFALSNLKAGAKDILVATDVAGRGIDIQDVSMVVNYDMAKNIEDYIHRIGRTGRAGKSGVAITFLTKEDSAVFYELKQAILESPVSSCPPELANHPDAQHKPGTILTKKRREETIFA	–	–	–	–	6	6	3	3
DDX17 (protein, UniProt Q92841 1-729, looked up) Probable ATP-dependent RNA …: MPTGFVAPILCVLLPSPTREAATVASATGDSASERESAAPAAAPTAEAPPPSVVTRPEPQALPSPAIRAPLPDLYPFGTMRGGGFGDRDRDRDRGGFGARGGGGLPPKKFGNPGERLRKKKWDLSELPKFEKNFYVEHPEVARLTPYEVDELRRKKEITVRGGDVCPKPVFAFHHANFPQYVMDVLMDQHFTEPTPIQCQGFPLALSGRDMVGIAQTGSGKTLAYLLPAIVHINHQPYLERGDGPICLVLAPTRELAQQVQQVADDYGKCSRLKSTCIYGGAPKGPQIRDLERGVEICIATPGRLIDFLESGKTNLRRCTYLVLDEADRMLDMGFEPQIRKIVDQIRPDRQTLMWSATWPKEVRQLAEDFLRDYTQINVGNLELSANHNILQIVDVCMESEKDHKLIQLMEEIMAEKENKTIIFVETKRRCDDLTRRMRRDGWPAMCIHGDKSQPERDWVLNEFRSGKAPILIATDVASRGLDVEDVKFVINYDYPNSSEDYVHRIGRTARSTNKGTAYTFFTPGNLKQARELIKVLEEANQAINPKLMQLVDHRGGGGGGGGRSRYRTTSSANNPNLMYQDECDRRLRGVKDGGRRDSASYRDRSETDRAGYANGSGYGSPNSAFGAQAGQYTYGQGTYGAAAYGTSSYTAQEYGAGTYGASSTTSTGRSSQSSSQQFSGIGRSGQQPQPLMSQQFAQPPGATNMIGYMGQTAYQYPPPPPPPPPSRK	13	13	–	–	5	5	–	–
